In PubChem BioAssay AID1347075 (National Center for Advancing Translational Sciences (NCATS), 2019):
The campaign covered roughly 400,000 compounds. About 5,500 (1.4%) were called active. Inconclusive means that the source gave no clear call. Such entries were picked first, then a sample of the others. Calls come from the whole dose curve; as a rule, active = well fitted cell-killing curve with a large enough effect; inconclusive = small, poorly fitted or top-dose-only effect, or effect the other way; inactive = flat fitted curve, though single readings scatter. Potencies beside an inconclusive call are fits to weak or partial responses and may not hold up.

Experiment: qHTS assay for MDR1-selective chemotherapeutics: Primary screen using the parental adenocarcinoma cell KB-3-1; note: nearly all actives have a fitted effect of over 60% in size
Conditions: KB-3-1 viability, CellTiter-Glo ATP luminescence, 72 h; activity change, negative = cytotoxic: at 46.1 µM (top of the series)
How it was run: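 KB-3-1 cells, DMEM (no phenol red) + 10% FBS; compound by pin transfer, 72 h, 37 °C. Readout: CellTiter-Glo luminescence after 10 min. Data normalized, curve-fitted.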
% is set by controls: 0 for no effect and ±100 for the full control effect; potency is the fitted concentration of half-maximal effect.

SMILES | Potency | activity change, negative = cytotoxic
CC(C)(C)C(=O)/C=c1\[nH]c(=O)/c(=C\c2ccc(F)cc2)s1 | inconclusive: 29.1 µM [cytotoxic, single point] | 
COC(=O)/C=C/c1ccccc1S(=O)(=O)N(Cc1ccccc1)Cc1ccco1 | active: 3.26 µM | 
Cc1onc(-c2ccccc2)c1C(=O)N1CCCC(C)(C(=O)NS(=O)(=O)C2CC2)C1 (configuration not stated) | inactive | 
CC12CCC(=O)C=C1CCC1C2CCC2(C)C(c3csc(N)n3)CCC12 (configuration not stated) | inconclusive: 29.1 µM [cytotoxic, single point] | 
CCc1ccc(-c2cc3c(=O)n(CC(=O)NCCN4CCCCC4C)nc(C)n3n2)cc1 (configuration not stated) | inconclusive: 29.1 µM [cytotoxic, single point] | 
CN(C)c1nc(N(C)C)nc(N(C#N)Cc2ccc(Cl)cc2)n1 | inactive | 
CCc1cn(C2CC(O)C(CO)O2)c(=O)[nH]c1=O (configuration not stated) | active: 4.61 µM | 
Cc1ccc(S(=O)(=O)N2c3ccccc3-c3c(ssc3=S)C2(C)C)cc1 | inconclusive: 29.1 µM [cytotoxic, single point] | 
COC(=O)c1cc(=O)n(-c2ccc(F)cc2)c(=Nc2ccc(F)cc2)s1 | inconclusive: 29.1 µM [cytotoxic, single point] | 
NC(=O)[C@@H]1CC2(CC(c3cccc(NC(=O)CC(c4ccccc4)c4ccccc4)c3)=NO2)CN1C(=O)COc1ccc(Cl)cc1 (some centres not stated) | inconclusive: 29.1 µM [cytotoxic, single point] | 
CCOc1cc(N2CCOCC2)c(OCC)cc1NC(=O)Cn1[nH]c(=O)c2ccccc2c1=O | inactive | 
Cc1ccc(N2C(=O)CN(Cc3ccccc3)C2=S)cc1C | inactive | 
O=Cc1[nH]c2ccccc2c1N(C(=O)CCl)c1ccccc1 | inactive | 
COc1cc2c(cc1OC)/C(=C/C(C)=O)OC2 | inactive | 
O=C(Nc1ccc(Cn2cccn2)cc1)c1ccc(COc2ccc(Br)cc2)cc1 | inactive | 
Cc1ccnc(NC(=O)CCCNC(=O)c2ccc(Cl)cc2)c1 | inconclusive: 16.4 µM [rising, partial curve] | 
COc1ccc(C2CC(c3ccccc3OC(C)=O)=NN2C(C)=O)cc1 (configuration not stated) | inconclusive: 20.6 µM [cytotoxic, partial curve] | 
CC1=Nc2cc(C(=O)NCCCOC(C)C)ccc2Sc2ccc(C)cc21 | active: 2.91 µM | 
COc1ccc(CNC(=O)C[C@H]2C[C@H](C(=O)N3CCCCC3)[C@@]3(C)c4[nH]c5cc(CCC(=O)N(C)C)ccc5c4CCN3C2=O)cc1OC | inactive | 
CCCCn1c(N)c(N(CCOC)C(=O)c2cc(Cl)nc3ccccc23)c(=O)[nH]c1=O | inconclusive: 29.1 µM [rising, single point] | 
c1ccc(CSc2ccc(-c3ccc4c(c3)OCO4)nn2)cc1 | active: 16.4 µM | 
COC(=O)c1cc(=O)n(Cc2ccco2)c(=Nc2ccc(F)cc2)s1 | inconclusive: 5.8 µM [cytotoxic, full curve, poor fit] | 
CCn1c(=O)c(C(=O)NCc2cccnc2)c(O)c2ccccc21 | inconclusive: 32.6 µM [cytotoxic, single point] | 
COc1ccc(CCNC(=O)c2ccc3c(Cl)c4c(nc3c2)CCCC4)c(OC)c1 | inconclusive: 29.1 µM [cytotoxic, single point] | 

SMILES | Potency | activity change, negative = cytotoxic
O=C(Nc1ccc(OCC(=O)N2CCOCC2)cc1)c1cc(F)c(F)cc1Cl | inconclusive: 0.0116 µM [rising, full curve, poor fit] | 
Cc1ccc(OCC(=O)N(C)CC(=O)Nc2ccc(Cl)c(C(F)(F)F)c2)c([N+](=O)[O-])n1 | inconclusive: 32.6 µM [cytotoxic, single point] | 
Cc1cccc(COC[C@H](Cc2ccccc2)N2CCN(C(=O)c3ccc(C(F)(F)F)cc3)CCC2=O)c1 | inconclusive: 16.4 µM [cytotoxic, single point] | 
CC(=O)c1ccc(N2CCN(c3ncnc4onc(C)c34)CC2)cc1 | active: 20.6 µM | 
O=C(O)c1nn(CCOc2cccc(Br)c2)c(=O)c2ccccc12 | inactive | 
COc1cc(-c2nc(-c3cccc(Cl)c3)c(-c3ccccc3)[nH]2)cc(OC)c1OC | inconclusive: 29.1 µM [cytotoxic, single point] | 
Cc1nn(C)c(C)c1/C=N/NC(=O)c1csc2ccccc12 | inactive | 
Cc1cccc(-c2n[nH]c(=S)n2/N=C/c2ccc(C)s2)c1 | inactive | 
COc1ccccc1NS(=O)(=O)c1cc(NC(=O)c2cnccn2)ccc1N1CCOCC1 | inconclusive: 11.6 µM [cytotoxic, partial curve, poor fit] | 
CCN1CCN(C(=O)c2ccc3c(=O)n(Cc4ccccc4OC)c(=S)[nH]c3c2)CC1 | inactive | 
COc1ccc(CNC(=O)c2cc3c(=O)n4ccccc4nc3n(Cc3cccnc3)c2=N)cc1 | inactive | 
COC(=O)c1ccc2nc(-c3ccc(C)cc3)c(Cc3cccc(Cl)c3)n2c1 | inconclusive: 8.2 µM [cytotoxic, partial curve] | 
O=C(C1CCCCC1)N1CCC(c2nc3ccccc3[nH]2)CC1 | inactive | 
CC1(Cc2cc(Cl)ccc2C(F)(F)F)C(=O)Nc2cc(C(F)(F)F)ccc21 (configuration not stated) | inactive | 
O=C(NNC(=O)C12CC3CC(CC(C3)C1)C2)c1ccccc1O | inconclusive: 20.6 µM [cytotoxic, single point] | 
COc1cccc(-c2cc(C(=O)Nc3ccn(Cc4ccc(C)cc4)n3)no2)c1 | inconclusive: 29.1 µM [cytotoxic, single point] | 
CC(C)c1ccc2oc(-c3ccc(NC(=O)c4cc5ccccc5o4)cc3)nc2c1 | inconclusive: 1.03 µM [cytotoxic, full curve, poor fit] | 
O=c1c2ccccc2nc(SCc2cn3ccsc3n2)n1-c1ccccc1 | inactive | 
O=C(Nc1cc(Cl)cc(Cl)c1)c1ccc(F)c(S(=O)(=O)NC2CCCCC2)c1 | inconclusive: 29.1 µM [cytotoxic, single point] | 
CCOc1ccc(C2=Nc3ccccc3C(c3ccc(N4CCOCC4)cc3)=NN2)cc1 | active: 16.4 µM | 
C=Cn1cc[n+](CC(=O)c2cc(C(C)(C)C)c(O)c(C(C)(C)C)c2)c1 | inconclusive: 29.1 µM [cytotoxic, single point] | 
Cc1c(OC(C)C(=O)NCCCN2CCOCC2)ccc2c3c(c(=O)oc12)CCC3 (configuration not stated) | inconclusive: 1.64 µM [rising, full curve] | 
COCCOC(=O)C1=C(C)NC2=C(C(=O)CC(c3cccs3)C2)C1c1ccsc1 (configuration not stated) | inconclusive: 29.1 µM [cytotoxic, single point] | 
O=C(Nc1ccc(Br)cc1)c1cccnc1N1CCOCC1 | inactive | 

SMILES | Potency | activity change, negative = cytotoxic
O=C(NC(Cc1c[nH]c2ccccc12)C(=O)O)/C(=C\c1ccccc1)NC(=O)c1ccccc1 (configuration not stated) | inconclusive: 3.26 µM [rising, full curve, poor fit] | 
Cc1csc(B(O)O)c1 | inactive | 
O=[N+]([O-])c1cc(CN2CCCCCC2)ccc1O | inactive | 
CCSc1nnc(NC(=O)Cc2cc(OC)c(OC)c(OC)c2)s1 | inconclusive: 23.1 µM [rising, single point] | 
COC(=O)CCCC(=O)N1CCCC(CCC(=O)NCc2ccc(F)c(F)c2)C1 (configuration not stated) | inactive | 
CC(C)(C)c1ccc(-n2ncc3c2CCCC3NC(=O)c2ccncc2)cc1 (configuration not stated) | inconclusive: 16.4 µM [cytotoxic, partial curve, poor fit] | 
O=C(Nc1ccncc1)c1cc(S(=O)(=O)N2CCCC2)ccc1Cl | inconclusive: 25.9 µM [cytotoxic, partial curve, poor fit] | 
COc1ccc(N2CCN(C(=O)c3ccc(Oc4ccc(C(F)(F)F)cn4)cc3)CC2)cc1 | inconclusive: 20.6 µM [cytotoxic, single point] | 
Cn1c(Oc2ccccc2NCc2cc(Br)ccc2O)cc(=O)n(C)c1=O | inconclusive: 29.1 µM [cytotoxic, single point] | 
COc1cc(C(=O)NNC(=O)/C=C/c2ccccc2)cc(OC)c1OC | inactive | 
COc1ccc(-c2noc(=O)n2Cc2ccccc2Cl)cc1 |  | inconclusive: -1.02%
Cc1ccc(-c2nc3ccc(Br)cn3c2Cc2ccsc2)cc1 | inconclusive: 29.1 µM [cytotoxic, single point] | 
Cn1c(C(=O)Nc2ccc3c(c2)OCCO3)cc2c(=O)n(C)c3ccccc3c21 | inactive | 
CC(C)CCC(CCNCc1ccccn1)c1ccc2c(c1)OCO2 (configuration not stated) | inactive | 
COc1cc(CC(=O)NCCCc2ccccc2)cc(OC)c1OC | inactive | 
Cc1ccc(CS(=O)(=O)c2ncc(Cl)c(C(=O)Nc3nnc(C)s3)n2)cc1 | active: 20.6 µM | 
CCN(CC)S(=O)(=O)c1ccc(N2CCc3cc(OC)c(OC)cc3C2)nc1 | inactive | 
Cc1nc(Nc2ccc(S(=O)(=O)N3CCCCC3C)cc2)c2nnn(Cc3ccccc3)c2n1 (configuration not stated) | active: 16.4 µM | 
Cc1ccc(NC(=O)CCNS(=O)(=O)c2cc(Br)cnc2N)cc1Cl | inconclusive: 29.1 µM [cytotoxic, single point] | 
O=C(CN1CCC(n2nnc3cc(F)ccc32)CC1)N1CCCc2ccccc21 | inactive | 
COc1ccc(NC(=O)c2ccc(Cl)c(S(=O)(=O)N3CC(C)OC(C)C3)c2)cn1 (configuration not stated) | inconclusive: 9.2 µM [cytotoxic, partial curve] | 
O=C(O)CCCC1(C(=O)O)CCCC1 | inconclusive: 23.1 µM [rising, partial curve, poor fit] | 
CC(Oc1ccccc1)C(=O)N1CCN(c2ncccn2)CC1 (configuration not stated) | inconclusive: 11.6 µM [rising, partial curve, poor fit] | 
O=[N+]([O-])c1cc([N+](=O)[O-])c2cccnc2c1Oc1ccccc1O | inactive | 

For reference, some entries already given.
SMILES | Potency | activity change, negative = cytotoxic
CCSc1nnc(NC(=O)Cc2cc(OC)c(OC)c(OC)c2)s1 | inconclusive: 23.1 µM [rising, single point] | 
COC(=O)CCCC(=O)N1CCCC(CCC(=O)NCc2ccc(F)c(F)c2)C1 (configuration not stated) | inactive | 
CC(C)(C)c1ccc(-n2ncc3c2CCCC3NC(=O)c2ccncc2)cc1 (configuration not stated) | inconclusive: 16.4 µM [cytotoxic, partial curve, poor fit] | 
O=C(Nc1ccncc1)c1cc(S(=O)(=O)N2CCCC2)ccc1Cl | inconclusive: 25.9 µM [cytotoxic, partial curve, poor fit] | 
COc1ccc(N2CCN(C(=O)c3ccc(Oc4ccc(C(F)(F)F)cn4)cc3)CC2)cc1 | inconclusive: 20.6 µM [cytotoxic, single point] | 
Cn1c(Oc2ccccc2NCc2cc(Br)ccc2O)cc(=O)n(C)c1=O | inconclusive: 29.1 µM [cytotoxic, single point] | 
